PubChem BioAssay AID1259254 – NCATS | 2017

- Test: 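Finding genes that stop cells copying their DNA twice in one cycle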 (primary screen)
- Cells: human HCT116 colorectal cancer cells
- Knock-down reagent: single siRNA against human genes
- Timing: 3 days
- Measured: 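Imaged Hoechst DNA stain sorts each cell into a cycle phase by DNA amount; per plate, G2 fraction set to 0% for non-targeting and 100% for GMNN siRNA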
- Reading the numbers: G2 robust z-score: higher = more G2 cells, more excess DNA replication
- Rule for the call: 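An siRNA counts as active if its G2 robust z-score lies at least 5 MADs above the screen median; here such calls match roughly 38% of GMNN control or more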
Here is one part, drawn at random, of about 59,000 deposited reagents. About 1,550 of them (2.6%) count as active. 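G2 share is only a proxy for re-replication; each gene was hit by three separate siRNAs, and active genes were retested.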 Reagents against one gene are numbered here. Not all columns of the deposit are shown. Reagent sequences are not shown. The record does not give: the amount of reagent.

G2 robust z-score,activity call,gene,siRNA no.
0.96,inactive,SLC27A1,1
-0.646,inactive,SLC27A1,2
-0.417,inactive,SLC27A1,3
4.5,inactive,NOC4L,1
-0.817,inactive,NOC4L,2
2.34,inactive,NOC4L,3
-0.474,inactive,ABCB8,1
1.43,inactive,ABCB8,2
-1.12,inactive,ABCB8,3
2.13,inactive,HSPA8,1
-0.971,inactive,HSPA8,2
1.61,inactive,HSPA8,3
-0.0677,inactive,CDK19,1
-1.5,inactive,CDK19,2
1.78,inactive,CDK19,3
2.98,inactive,ADAMTS14,1
0.373,inactive,ADAMTS14,2
-0.515,inactive,ADAMTS14,3
-0.0107,inactive,PEX12,1
2.1,inactive,PEX12,2
0.683,inactive,PEX12,3
1.03,inactive,MEI1,1
0.479,inactive,MEI1,2
0.58,inactive,MEI1,3
0.55,inactive,NPY2R,1
-0.261,inactive,NPY2R,2
0.666,inactive,NPY2R,3
-0.743,inactive,ZSCAN2,1
1.26,inactive,ZSCAN2,2
-0.386,inactive,ZSCAN2,3
-0.139,inactive,STIM1,1
2.25,inactive,STIM1,2
0.209,inactive,STIM1,3
-0.257,inactive,LINGO2,1
1.25,inactive,LINGO2,2
3.45,inactive,LINGO2,3
-0.586,inactive,ANXA10,1
-0.881,inactive,ANXA10,2
-0.422,inactive,ANXA10,3
0.43,inactive,CD74,1
2.09,inactive,CD74,2
-0.273,inactive,CD74,3
-0.491,inactive,DMRTA1,1
-0.554,inactive,DMRTA1,2
0.173,inactive,DMRTA1,3
0.307,inactive,LILRB2,1
2.03,inactive,LILRB2,2
-0.797,inactive,LILRB2,3
-1.54,inactive,ELP4,1
0.147,inactive,ELP4,2
0.162,inactive,ELP4,3
0.578,inactive,GFAP,1
0.0606,inactive,GFAP,2
3.15,inactive,GFAP,3
-0.0539,inactive,IQCM,1
-0.983,inactive,IQCM,2
1.3,inactive,IQCM,3
1.87,inactive,CHRNB4,1
1.42,inactive,CHRNB4,2
-0.267,inactive,CHRNB4,3
0.489,inactive,CCM2L,1
0.524,inactive,CCM2L,2
-0.0988,inactive,CCM2L,3
1.98,inactive,DGAT1,1
-0.0179,inactive,DGAT1,2
-1.1,inactive,DGAT1,3
3.45,inactive,SLC1A3,1
0.305,inactive,SLC1A3,2
6.99,active,SLC1A3,3

11 entries from above, sorted by “G2 robust z-score”, descending.
G2 robust z-score,activity call,gene,siRNA no.
2.98,inactive,ADAMTS14,1
2.13,inactive,HSPA8,1
2.1,inactive,PEX12,2
1.78,inactive,CDK19,3
1.61,inactive,HSPA8,3
0.373,inactive,ADAMTS14,2
-0.0107,inactive,PEX12,1
-0.0677,inactive,CDK19,1
-0.515,inactive,ADAMTS14,3
-0.971,inactive,HSPA8,2
-1.5,inactive,CDK19,2
